In PMC5487423:
Results are given in words; binding and its absence hold for the method and conditions named. Some binding calls cover weakened binding; strength is not graded here. For some assays here: Where a sequence is shown, tags or fusion partners need not be part of it.

Legend:
[1] = target: T1, P467_RHIPU, yeast surface display, C-terminal SAG1 fusion (Rhipicephalus pulchellus) (UniProt L7M8Z8); test: flow cytometry on cells; yeast (EBY100) displaying one evasin fusion after galactose induction, labelled in PBS with biotinylated chemokine (Almac) and streptavidin-Alexa647, 30 minutes on ice; compared with yeast bearing the empty surface display vector; only the binder purified
T1 sequence: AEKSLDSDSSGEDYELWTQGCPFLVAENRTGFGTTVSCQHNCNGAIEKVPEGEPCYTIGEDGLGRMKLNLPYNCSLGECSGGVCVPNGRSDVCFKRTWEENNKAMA

[2] = target: T2, P467_RHIPU, yeast surface display library clones (Rhipicephalus pulchellus) (UniProt L7M8Z8); test: flow cytometry on cells; yeast surface display library (mini-library of 24, maxi-library of 352 putative evasins; N-terminal AGA2, C-terminal SAG1 or AGA2) labelled with one biotinylated human CC chemokine and streptavidin-AF647, two rounds of FACS with a gate set by omitting the chemokine; clones sequenced, re-transformed and retested by FACS; only the binder purified
T2 sequence: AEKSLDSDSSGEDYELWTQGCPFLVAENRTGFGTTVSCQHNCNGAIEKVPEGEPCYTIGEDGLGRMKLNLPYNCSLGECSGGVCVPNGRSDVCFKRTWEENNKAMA

[3] = target: T3, P546_AMBCA, yeast surface display library clones (Amblyomma cajennense); test: as above
T3 sequence: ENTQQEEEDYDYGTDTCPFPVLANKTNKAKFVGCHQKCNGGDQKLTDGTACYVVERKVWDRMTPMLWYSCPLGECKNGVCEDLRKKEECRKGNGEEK

[4] = target: T4, P974_AMBCA, yeast surface display library clones (Amblyomma cajennense); test: as above
T4 sequence: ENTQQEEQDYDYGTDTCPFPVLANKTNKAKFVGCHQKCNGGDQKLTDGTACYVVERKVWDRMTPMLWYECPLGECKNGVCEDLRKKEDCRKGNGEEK

[5] = target: T5, P546_AMBCA, yeast surface display library clones (Amblyomma cajennense), A0A023; test: as above; conditions: remark: other sources report otherwise
T5 chain: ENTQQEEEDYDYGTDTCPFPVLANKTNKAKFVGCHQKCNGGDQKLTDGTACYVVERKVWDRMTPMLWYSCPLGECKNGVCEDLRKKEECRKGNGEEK

[6] = target: T6, P467_RHIPU, yeast surface display, C-terminal SAG1 fusion (Rhipicephalus pulchellus), L7M8Z8; test: flow cytometry on cells; yeast (EBY100) displaying one evasin fusion after galactose induction, labelled in PBS with biotinylated chemokine (Almac) and streptavidin-Alexa647, 30 minutes on ice; compared with yeast bearing the empty surface display vector; only the binder purified; conditions: remark: other sources report otherwise
T6 chain: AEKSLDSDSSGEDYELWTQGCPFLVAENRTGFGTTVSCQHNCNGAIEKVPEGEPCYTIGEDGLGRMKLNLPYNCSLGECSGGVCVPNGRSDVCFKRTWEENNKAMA

[7] = target: T7, P467_RHIPU, yeast surface display, N-terminal AGA2 fusion (Rhipicephalus pulchellus) (UniProt L7M8Z8); test: as above
T7 sequence: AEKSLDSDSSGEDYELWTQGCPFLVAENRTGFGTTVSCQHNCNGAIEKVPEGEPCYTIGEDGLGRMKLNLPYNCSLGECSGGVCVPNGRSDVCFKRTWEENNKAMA

[8] = target: T8, P1180_AMBTR, yeast surface display library clones (Amblyomma triste); test: flow cytometry on cells; yeast surface display library (mini-library of 24, maxi-library of 352 putative evasins; N-terminal AGA2, C-terminal SAG1 or AGA2) labelled with one biotinylated human CC chemokine and streptavidin-AF647, two rounds of FACS with a gate set by omitting the chemokine; clones sequenced, re-transformed and retested by FACS; only the binder purified
T8 sequence: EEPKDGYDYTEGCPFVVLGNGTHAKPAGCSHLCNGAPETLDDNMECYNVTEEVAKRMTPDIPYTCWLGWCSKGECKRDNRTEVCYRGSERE

[9] = target: T9, P1182_AMBMA, yeast surface display library clones (Amblyomma maculatum) (UniProt G3MJ83); test: as above
T9 sequence: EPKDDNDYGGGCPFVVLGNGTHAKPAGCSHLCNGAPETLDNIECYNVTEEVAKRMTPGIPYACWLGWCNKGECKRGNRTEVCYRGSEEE

[10] = target: T10, P991_AMBCA, yeast surface display library clones (Amblyomma cajennense); test: as above
T10 sequence: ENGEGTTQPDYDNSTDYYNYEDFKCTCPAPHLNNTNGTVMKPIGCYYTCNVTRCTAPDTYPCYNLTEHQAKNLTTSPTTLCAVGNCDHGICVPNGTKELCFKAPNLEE

B1: biotinylated CCL1 (ligand, UniProt P22362 24-96)
chain: KSMQVPFSRCCFSFAEQEIPLRAILCYRNTSSICSNEGLIFKLKRGKEACALDTVGWVQRHRKMLRHCPSKRK
B1 was tested, and the binding [1] was “binds”, the binding [2] was “binds” and the binding [3] was “binds”. The binding [4] was “binds”.

B2: biotinylated CCL5, P13501 24-91 (ligand)
chain: SPYSSDTTPCCFAYIARPLPRAHIKEYFYTSGKCSNPAVVFVTRKNRQVCANPEKKWVREYINSLEMS
For B2, the binding [5] was “binds”.

B3: biotinylated CCL17, Q92583 24-94 (ligand)
chain: ARGTNVGRECCLEYFKGAIPLRKLKTWYQTSEDCSRDAIVFVTVQGRAICSDPNNKRVKNAVKYLQSLERS
In the case of B3, the binding [6] is reported as “binds”.

B4: biotinylated CCL18 (ligand, UniProt P55774 21-89)
chain: AQVGTNKELCCLVYTSWQIPQKFIVDYSETSPQCPKPGVILLTKRGRQICADPNKKWVQKYISDLKLNA
In the case of B4, the binding [1] is reported as “binds”, the binding [7] is reported as “binds” and the binding [8] is reported as “binds”. For the same binder, the binding [9] was “binds”, the binding [4] was “binds” and the binding [10] was “binds”.

B5: biotinylated CCL19, Q99731 22-98 (ligand)
chain: GTNDAEDCCLSVTQKPIPGYIVRNFHYLLIKDGCRVPAVVFTTLRGRQLCAPPDQPWVERIIQRLQRTSAKMKRRSS
B5 was tested, and the binding [6] was “binds”.

B6: biotinylated CCL22, O00626 25-93 (ligand)
chain: GPYGANMEDSVCCRDYVRYRLPLRVVKHFYWTSDSCPRPGVVLLTFRDKEICADPRVPWVKMILNKLSQ
With B6 the binding [6] was “binds”.

B7: biotinylated CCL22 (ligand, UniProt O00626 25-93)
chain: GPYGANMEDSVCCRDYVRYRLPLRVVKHFYWTSDSCPRPGVVLLTFRDKEICADPRVPWVKMILNKLSQ
For B7, the binding [3] was “binds”, the binding [4] was “binds” and the binding [10] was “binds”.
